Test results published in patent US20210275640A1, “METHODS FOR ENHANCING PERMEABILITY TO BLOOD-BRAIN BARRIER, AND USES THEREOF” (ACADEMIA SINICA, priority 2014, published 2021).
At least one compound was matched to its structure with a doubt left.

Test system: U-87MG glioblastoma xenograft
Settings: 20 mg/Kg vs 5 mg/kg

Compound: Cn1nnc2c(C(N)=O)ncn2c1=O [TMZ, temozolomide]
- Treatment effect of high dose vs low dose TMZ: did not exhibit improved treatment effect
